Literature values as cited in US20210123868A1, “REAGENT COMPOSITION FOR PH MEASUREMENT” (MIURA CO., LTD., priority 2018, published 2021).
For at least one compound, name, drawing or mass did not settle the structure.

Conditions: value at 25° C.

## O=S1(=O)OC(c2cc(Br)c(O)c(Br)c2)(c2cc(Br)c(O)c(Br)c2)c2ccccc21 [bromophenol blue]
  acid dissociation constant (pKa): 4.2
